Results as given in doi:10.1101/2025.09.29.679208.
Results are given in words; binding and its absence hold for the method and conditions named. Binding seen in cells or lysates may run through a third protein. Some binding calls cover weakened binding; strength is not graded here.

Sequences of proteins named here, by UniProt entry; tags and fusion partners are left off. A change or cut given only in a name is not applied to a line headed by its entry.
UniProt Q8N6T7: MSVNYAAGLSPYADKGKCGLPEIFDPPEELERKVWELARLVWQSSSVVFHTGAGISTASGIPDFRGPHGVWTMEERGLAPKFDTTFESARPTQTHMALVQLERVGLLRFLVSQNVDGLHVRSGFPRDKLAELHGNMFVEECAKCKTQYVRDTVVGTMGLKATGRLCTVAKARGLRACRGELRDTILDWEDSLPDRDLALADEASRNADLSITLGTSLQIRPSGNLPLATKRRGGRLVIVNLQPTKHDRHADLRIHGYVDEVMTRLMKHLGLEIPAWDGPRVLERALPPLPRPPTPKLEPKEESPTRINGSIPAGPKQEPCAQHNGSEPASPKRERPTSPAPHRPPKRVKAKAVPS
UniProt P08670: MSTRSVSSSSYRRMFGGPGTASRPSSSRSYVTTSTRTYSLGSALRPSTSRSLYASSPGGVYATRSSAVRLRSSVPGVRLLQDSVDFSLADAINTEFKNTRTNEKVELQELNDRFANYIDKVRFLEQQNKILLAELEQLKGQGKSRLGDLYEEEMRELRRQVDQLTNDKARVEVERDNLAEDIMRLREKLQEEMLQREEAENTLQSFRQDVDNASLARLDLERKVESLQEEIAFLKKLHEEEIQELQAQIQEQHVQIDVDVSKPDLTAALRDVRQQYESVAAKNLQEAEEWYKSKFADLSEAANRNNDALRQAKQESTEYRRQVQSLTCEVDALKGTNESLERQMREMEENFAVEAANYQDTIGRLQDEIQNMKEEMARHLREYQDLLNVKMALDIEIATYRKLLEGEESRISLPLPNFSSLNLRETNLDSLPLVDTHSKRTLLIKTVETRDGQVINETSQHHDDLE

Columns and labels:
[1] = target: Sirtuin 6 (SIRT6), wild type (human (endogenous in hMSCs)) (UniProt Q8N6T7); test: co-IP
[2] = target: centenarian SIRT6 protein (CentSIRT6; N308K and A313S) (human (endogenous in hMSCs)) (UniProt Q8N6T7); test: co-IP

binding [1]: binds
binding [2]: binds
Substance: vimentin (VIM) (from UniProt P08670 1-466)
